No constants are given. Whether binding was seen depends on the method and setting. Binding seen in cells or lysates may run through a third protein. These calls come from enrichment with a bait or labelling near it, and not all partners need be listed.
T1: methyl-CpG binding domain protein 5 (MBD5) (Arabidopsis thaliana) (UniProt Q9SNC0)
T1 sequence: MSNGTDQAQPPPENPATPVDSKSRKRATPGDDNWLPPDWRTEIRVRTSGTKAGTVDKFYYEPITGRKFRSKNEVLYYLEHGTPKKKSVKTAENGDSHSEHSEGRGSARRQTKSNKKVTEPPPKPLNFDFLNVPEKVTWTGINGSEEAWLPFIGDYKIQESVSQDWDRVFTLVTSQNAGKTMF

Protein sequences, listed by entry. Tags and fused reporters are not part of them. Lines headed by an entry give the natural chain unless they say otherwise; changes in a name come on top.
UniProt Q9S842: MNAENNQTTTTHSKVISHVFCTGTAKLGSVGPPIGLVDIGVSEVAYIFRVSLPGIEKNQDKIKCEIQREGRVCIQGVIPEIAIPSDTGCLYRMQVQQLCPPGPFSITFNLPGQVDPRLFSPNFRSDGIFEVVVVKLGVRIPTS

T2: methyl-CpG binding domain protein 6 (MBD6) (Arabidopsis thaliana) (UniProt Q9LTJ1)
T2 sequence: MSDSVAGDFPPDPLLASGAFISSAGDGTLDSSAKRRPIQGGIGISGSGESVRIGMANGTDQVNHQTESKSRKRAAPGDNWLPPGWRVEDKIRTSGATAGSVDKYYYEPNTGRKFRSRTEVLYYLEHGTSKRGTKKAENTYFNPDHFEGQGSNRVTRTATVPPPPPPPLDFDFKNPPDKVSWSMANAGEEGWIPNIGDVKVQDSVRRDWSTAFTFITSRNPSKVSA


Columns and labels:
Assay in all cases: affinity purification with mass spectrometry; 3xFLAG-tagged bait from transgenic plants held on anti-FLAG M2 magnetic beads; lysate of 8 to 10 g of inflorescences; IP buffer 50 mM tris-HCl pH 8.0, 150 mM NaCl, 5 mM EDTA, 20% glycerol, 0.1% Tergitol, 0.5 mM dithiothreitol; 2 hours at 4°C; eluted with 3X-FLAG peptides; LC-MS/MS; backgrounds: wild-type Col-0, and sln, mbd5 mbd6 and acd21 mutants where binding was kept
[1] = target: T1, methyl-CpG binding domain protein 5 (MBD5) (Arabidopsis thaliana)
[2] = target: T2, methyl-CpG binding domain protein 6 (MBD6) (Arabidopsis thaliana)
[3] = target: ACD15.5/RDS2 (ACD15) (Arabidopsis thaliana) (UniProt Q9S842)

binding [1]	binding [2]	binding [3]	Molecule
binds	binds	–	ACD15.5/RDS2 (ACD15) (from UniProt Q9S842)
–	–	binds	methyl-CpG binding domain protein 5 (MBD5) (protein, UniProt Q9SNC0 1-182) MSNGTDQAQPPPENPATPVDSKSRKRATPGDDNWLPPDWRTEIRVRTSGTKAGTVDKFYYEPITGRKFRSKNEVLYYLEHGTPKKKSVKTAENGDSHSEHSEGRGSARRQTKSNKKVTEPPPKPLNFDFLNVPEKVTWTGINGSEEAWLPFIGDYKIQESVSQDWDRVFTLVTSQNAGKTMF
–	–	binds	methyl-CpG binding domain protein 6 (MBD6) (protein, UniProt Q9LTJ1 1-225) MSDSVAGDFPPDPLLASGAFISSAGDGTLDSSAKRRPIQGGIGISGSGESVRIGMANGTDQVNHQTESKSRKRAAPGDNWLPPGWRVEDKIRTSGATAGSVDKYYYEPNTGRKFRSRTEVLYYLEHGTSKRGTKKAENTYFNPDHFEGQGSNRVTRTATVPPPPPPPLDFDFKNPPDKVSWSMANAGEEGWIPNIGDVKVQDSVRRDWSTAFTFITSRNPSKVSA

Source: article PMC10651127
